Source: article PMC4055408
No constants are given. Whether binding was seen depends on the method and setting. In cells and extracts the contact can be indirect. A yes stands for co-enrichment or nearness to the bait. Other partners may have been found.

The chains behind the UniProt entries cited, without tags or fusion partners.
UniProt Q9UI95: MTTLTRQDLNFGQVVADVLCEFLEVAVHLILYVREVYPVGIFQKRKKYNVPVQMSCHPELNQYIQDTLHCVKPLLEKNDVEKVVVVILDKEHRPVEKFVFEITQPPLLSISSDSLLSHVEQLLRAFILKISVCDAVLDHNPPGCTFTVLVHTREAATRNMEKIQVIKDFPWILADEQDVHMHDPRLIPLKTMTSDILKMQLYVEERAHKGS
UniProt P27708: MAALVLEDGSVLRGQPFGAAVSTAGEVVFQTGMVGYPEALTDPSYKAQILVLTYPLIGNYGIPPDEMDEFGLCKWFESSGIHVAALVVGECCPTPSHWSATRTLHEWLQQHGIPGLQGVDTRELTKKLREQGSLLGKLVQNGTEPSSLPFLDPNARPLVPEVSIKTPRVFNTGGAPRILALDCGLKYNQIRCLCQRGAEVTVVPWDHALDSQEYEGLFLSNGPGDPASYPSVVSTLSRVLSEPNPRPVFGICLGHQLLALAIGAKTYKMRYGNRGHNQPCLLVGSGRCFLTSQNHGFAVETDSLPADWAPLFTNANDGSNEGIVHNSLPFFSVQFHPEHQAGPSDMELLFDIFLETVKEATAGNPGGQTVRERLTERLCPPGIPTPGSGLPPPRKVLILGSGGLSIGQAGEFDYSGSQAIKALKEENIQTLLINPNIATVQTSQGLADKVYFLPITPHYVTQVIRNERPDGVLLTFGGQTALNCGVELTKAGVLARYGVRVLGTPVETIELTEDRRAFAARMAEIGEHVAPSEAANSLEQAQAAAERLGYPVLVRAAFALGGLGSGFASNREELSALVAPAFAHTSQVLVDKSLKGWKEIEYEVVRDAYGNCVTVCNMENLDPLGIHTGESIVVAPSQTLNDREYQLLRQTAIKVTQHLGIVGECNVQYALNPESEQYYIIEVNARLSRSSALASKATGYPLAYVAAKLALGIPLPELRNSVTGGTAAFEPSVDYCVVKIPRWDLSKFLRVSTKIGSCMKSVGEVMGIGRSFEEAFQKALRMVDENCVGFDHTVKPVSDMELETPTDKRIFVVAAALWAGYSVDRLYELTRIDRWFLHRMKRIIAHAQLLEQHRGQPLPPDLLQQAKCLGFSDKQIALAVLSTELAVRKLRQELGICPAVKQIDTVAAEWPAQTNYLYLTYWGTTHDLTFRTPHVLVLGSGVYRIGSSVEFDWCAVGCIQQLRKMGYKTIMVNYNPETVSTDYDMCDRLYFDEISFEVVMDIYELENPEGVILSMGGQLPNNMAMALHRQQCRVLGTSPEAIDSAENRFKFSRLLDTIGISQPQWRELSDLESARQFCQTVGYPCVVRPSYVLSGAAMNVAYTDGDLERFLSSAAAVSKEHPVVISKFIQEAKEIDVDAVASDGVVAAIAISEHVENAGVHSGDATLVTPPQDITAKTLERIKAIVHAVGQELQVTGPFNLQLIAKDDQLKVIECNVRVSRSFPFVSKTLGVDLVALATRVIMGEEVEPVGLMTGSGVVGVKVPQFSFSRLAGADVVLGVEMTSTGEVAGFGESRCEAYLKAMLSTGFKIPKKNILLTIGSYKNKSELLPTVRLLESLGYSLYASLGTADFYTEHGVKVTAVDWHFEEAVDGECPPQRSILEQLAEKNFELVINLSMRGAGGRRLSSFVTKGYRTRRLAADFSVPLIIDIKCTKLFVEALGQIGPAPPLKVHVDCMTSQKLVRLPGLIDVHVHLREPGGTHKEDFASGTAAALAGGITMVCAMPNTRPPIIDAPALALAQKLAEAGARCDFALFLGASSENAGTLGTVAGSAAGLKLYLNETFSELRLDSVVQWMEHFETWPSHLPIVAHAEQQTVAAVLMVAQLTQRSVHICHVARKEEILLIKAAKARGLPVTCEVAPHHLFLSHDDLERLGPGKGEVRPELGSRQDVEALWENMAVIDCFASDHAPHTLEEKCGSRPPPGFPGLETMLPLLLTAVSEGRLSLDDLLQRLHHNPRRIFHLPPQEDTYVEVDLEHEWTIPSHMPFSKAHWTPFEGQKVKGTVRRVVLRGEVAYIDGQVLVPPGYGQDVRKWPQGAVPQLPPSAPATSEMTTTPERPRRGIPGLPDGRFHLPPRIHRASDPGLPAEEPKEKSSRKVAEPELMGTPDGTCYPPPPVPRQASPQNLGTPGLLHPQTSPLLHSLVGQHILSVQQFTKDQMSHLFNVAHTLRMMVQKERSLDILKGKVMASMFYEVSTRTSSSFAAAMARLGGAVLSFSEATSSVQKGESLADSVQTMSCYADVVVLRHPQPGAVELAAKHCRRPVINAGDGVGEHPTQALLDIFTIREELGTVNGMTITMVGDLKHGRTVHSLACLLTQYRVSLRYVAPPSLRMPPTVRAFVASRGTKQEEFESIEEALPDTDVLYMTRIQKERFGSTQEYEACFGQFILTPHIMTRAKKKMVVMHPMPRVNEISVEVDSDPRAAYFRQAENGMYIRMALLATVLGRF
UniProt P78347: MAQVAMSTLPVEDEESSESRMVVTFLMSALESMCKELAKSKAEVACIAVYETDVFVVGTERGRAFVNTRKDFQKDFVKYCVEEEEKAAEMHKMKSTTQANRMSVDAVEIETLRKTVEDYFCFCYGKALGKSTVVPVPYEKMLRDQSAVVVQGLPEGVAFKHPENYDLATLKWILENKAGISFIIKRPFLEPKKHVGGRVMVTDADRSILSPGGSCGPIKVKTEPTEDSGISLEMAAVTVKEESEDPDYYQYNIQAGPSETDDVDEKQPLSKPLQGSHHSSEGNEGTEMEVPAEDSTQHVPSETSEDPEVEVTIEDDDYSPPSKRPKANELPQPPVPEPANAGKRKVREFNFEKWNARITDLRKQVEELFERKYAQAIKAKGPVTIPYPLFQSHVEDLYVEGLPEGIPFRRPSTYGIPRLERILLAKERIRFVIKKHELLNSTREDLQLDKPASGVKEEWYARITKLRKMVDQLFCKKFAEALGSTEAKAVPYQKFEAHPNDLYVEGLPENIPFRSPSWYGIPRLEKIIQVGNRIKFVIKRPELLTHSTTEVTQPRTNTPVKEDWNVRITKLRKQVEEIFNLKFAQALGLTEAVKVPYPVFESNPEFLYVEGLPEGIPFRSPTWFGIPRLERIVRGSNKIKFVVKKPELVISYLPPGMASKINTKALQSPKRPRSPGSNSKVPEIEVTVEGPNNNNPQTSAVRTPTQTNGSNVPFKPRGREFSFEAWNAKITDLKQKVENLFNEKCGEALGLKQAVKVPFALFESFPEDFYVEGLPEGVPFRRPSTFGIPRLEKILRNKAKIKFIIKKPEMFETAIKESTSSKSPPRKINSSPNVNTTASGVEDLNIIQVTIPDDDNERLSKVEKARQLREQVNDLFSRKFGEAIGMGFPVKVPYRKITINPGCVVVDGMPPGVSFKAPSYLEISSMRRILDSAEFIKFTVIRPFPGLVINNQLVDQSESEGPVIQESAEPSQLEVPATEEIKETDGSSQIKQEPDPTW

Target: TAP-Rev7 (human Rev7 fused at its N-terminus with a tandem affinity purification tag) (human) (UniProt Q9UI95)
Experiment: affinity purification with mass spectrometry; tandem affinity purification of TAP-Rev7 from stable 293T cells (IgG-Sepharose, TEV, calmodulin-Sepharose), with or without UV 10 J/m^2; bands cut from the gel of the unirradiated sample, nano-LC/MS/MS

binding	Substance
binds	CAD (Carbamoyl-phosphate synthetase 2, Aspartate transcarbamylase, and Dihydroorotase), endogenous (from UniProt P27708 1-2225) (enzyme)
binds	TFII-I, endogenous (from UniProt P78347 1-998)
